# Measurements: patent US4233291A (priority 1977, dated 1980)
# For at least one compound, name, drawing or mass did not settle the structure.
# Tested on: peritoneal macrophages
# Assay: Stimulation of the macrophages after intraperitoneal injection to rats
# Format: in vivo
# Conditions: 6 days before the peritoneal washings
structure (smiles),measurement,setting,value
CC(=O)N[C@@H]1[C@@H](O[C@H](C)C(=O)N[C@@H](C)C(=O)N[C@H](CCC(=O)O)C(N)=O)[C@H](O)[C@@H](CO)O[C@H]1O [Muramyldipeptide],L.A.P. (leucine amino-peptidase) (change),1 μg intraperitoneal,+ 24%
same,Proteins (change of content in macrophages),1 μg intraperitoneal,"+ 7,5%"
same,β-Glucuronidase (change),1 μg intraperitoneal,+ 27%
same,L.A.P. (leucine amino-peptidase) (change),100 μg intraperitoneal,+ 5%
same,Proteins (change of content in macrophages),100 μg intraperitoneal,+ 2%
same,β-Glucuronidase (change),100 μg intraperitoneal,+ 5%
